Measured values published in patent publication US9657091 (AC IMMUNE S A, dated 2017).
Changes are numbered by the printed parent chain. Results are given in words; binding and its absence hold for the method and conditions named. Some entries that bind do so weakly or less than the wild type.

Sequences of proteins named here, by UniProt entry; tags and fusion partners are left off. A change or cut given only in a name is not applied to a line headed by its entry.
UniProt P10636: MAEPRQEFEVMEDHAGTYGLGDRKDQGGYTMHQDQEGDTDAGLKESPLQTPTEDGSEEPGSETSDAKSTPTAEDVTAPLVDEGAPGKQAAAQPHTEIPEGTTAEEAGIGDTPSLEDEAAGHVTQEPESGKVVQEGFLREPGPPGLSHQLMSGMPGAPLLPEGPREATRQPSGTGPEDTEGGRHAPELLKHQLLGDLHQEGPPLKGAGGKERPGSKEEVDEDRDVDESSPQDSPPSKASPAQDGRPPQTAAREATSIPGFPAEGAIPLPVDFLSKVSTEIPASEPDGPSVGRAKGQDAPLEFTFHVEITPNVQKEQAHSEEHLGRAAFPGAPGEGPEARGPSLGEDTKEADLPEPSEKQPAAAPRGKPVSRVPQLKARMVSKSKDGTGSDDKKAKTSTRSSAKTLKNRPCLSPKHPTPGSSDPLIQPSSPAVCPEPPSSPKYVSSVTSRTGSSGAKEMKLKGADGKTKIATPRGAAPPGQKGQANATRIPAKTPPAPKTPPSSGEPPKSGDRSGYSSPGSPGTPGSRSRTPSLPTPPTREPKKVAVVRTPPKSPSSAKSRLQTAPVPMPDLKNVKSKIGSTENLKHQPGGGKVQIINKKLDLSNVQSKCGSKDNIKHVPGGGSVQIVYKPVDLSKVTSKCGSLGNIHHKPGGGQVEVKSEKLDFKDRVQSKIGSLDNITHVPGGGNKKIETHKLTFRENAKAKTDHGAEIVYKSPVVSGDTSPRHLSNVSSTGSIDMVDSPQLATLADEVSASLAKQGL

B1: humanized antibody hACl-36-2B6-Ab1 (IgG4) (antibody, V domains shown)
VH: QVQLVQSGAEVKKPGSSVKVSCKASGYTFTDYYMNWVRQAPGQGLEWIGDINPNRGGTTYNQKFKGRVTITVDKSTSTAYMELSSLRSEDTAVYYCASYYAVGYWGQGTTVTVSS
VL: DIVMTQTPLSLPVTPGEPASISCRSSQSLVHSHGKTYLHWYLQKPGQSPQLLIYKVSNRFSGVPDRFSGSGSGTDFTLKISRVEAEDVGVYFCSQTAHFPYTFGGGTKVEIKR
notes: Humanized IgG4, kappa; also called 2B6A10C11
B2: humanized antibody hACl-36-3A8-Ab1 (IgG4) (antibody, V domains shown)
VH: B1 VH
VL: B1 VL with S28R
notes: Humanized IgG4, kappa; Tested as a supernatant containing the antibody; also called 3A8A12G7

Columns and labels:
[1] = molecular target: longest isoform (441aa) of human Tau with the P301L mutation, as Tau tangles and neuropil threads in brain sections of biGT transgenic mice (human) (UniProt P10636); experiment: TAUPIR immunostaining (figure legend)
[2] = molecular target: longest isoform (441aa) of human Tau with the P301L mutation, as Tau tangles and neuropil threads in brain sections of biGT transgenic mice (human) (UniProt P10636); experiment: TAUPIR immunostaining of biGT mouse brain sections

| Binder | binding [1] | binding [2] |
| --- | --- | --- |
| B1 | binds | binds |
| B2 | binds | binds |
